# This is one part of the list.
# B1: TAL6-6LysM (Trichoderma atroviride) (protein)
# chain: AASKLGVPQPAQRDQVNCQLYAVQPNDNCIDISSKNNITYAQLLSWNPSLSSTCSNLASLNSSSICVSNPKGTFSISSNTVGATDIATTTAPVPSPTLDQTTSRCAKYYQVSDGDDCSHLTAQFAITLKDFIFLNSEVWQNCTNLELGYYYCVEPVGYISTYPGYLPTATTKPFNQTSATSLPYDGDPWARFSSNSSVIPIANGTRVDCYSYVYVKNLTENLFADCWNMASMYEITREELVLWNPSLGNDGSSGSNLSGAEASQVASSIAIPTTAPSSITTNLYTYPCTVAANISYCVALVSSTGALPTNTAPPGPHASGEISNCTAWFAPEAYDTCKSILDIFEMSFANFYKMNPSVGPDCSGLAVGTNYCVSTYPNGEDPNDDWDGDDSIPSISPTGIITPTPTQSGMVSNCNKFYDVHSNDGCSAIASSQHVDLSSLYKWNPAIKTDCSGLQASVYVCIGILTTSMSTTSKLPTTTSKPSTTSKPPTGITTPTPTQSGMVKNCNKFYDVHSGDGCSAIASSQKVNLSSFYLWNPAVKTDCSGLQASVFVCIGTLTTSMSTTTSKLPTTTSKPSTTSKPPTGIITPTPTQNGMVKNCNKFYDVHSGDGCSAIASSQKVNLSSFYLWNPAVKTDCSGLQASVFVCVGTATTTTAAGITTPTPTQSGMVSGCNKFYDVHAGDGCSAIASSQKIALSSLYKWNPAVKTDCSGLQASVYICIGVGNAAAARVTGAAASFLEQKLISEEDLNSAVDHHHHHH
# Legend:
# Test in all cases: glycan array binding signal (z-score within array); higher = stronger binding
# Details in all cases: glycan notation: IUPAC condensed, linker removed
# Fuc(a1-3)GlcNAc = molecular target: Fuc(a1-3)GlcNAc
# Method in brief: (§1)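 The binding signal is a Z-score computed within each array. Data were drawn from 3228 arrays in the Consortium for Functional Glycomics database, restricted to those with a known protein sequence. Scores were averaged over arrays of the same protein sequence at different concentrations or buffers, and over linkers, and negative values can be taken as non-binding.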
# [1] = molecular target: Fuc(a1-3)[Gal(b1-4)]Glc6S
# Method in brief: as §1
# [2] = molecular target: Fuc(a1-3)[Gal(b1-4)]GlcNAc
# Method in brief: as §1
# [3] = molecular target: Fuc(a1-3)[Gal(b1-4)]GlcNAc(b1-2)Man
# Method in brief: as §1
# [4] = molecular target: Fuc(a1-3)[Gal(b1-4)]GlcNAc(b1-2)Man(a1-3)[Fuc(a1-3)[Gal(b1-4)]GlcNAc(b1-2)Man(a1-6)]Man(b1-4)GlcNAc(b1-4)GlcNAc
# Method in brief: as §1
# [5] = molecular target: Fuc(a1-3)[Gal(b1-4)]GlcNAc(b1-2)Man(a1-3)[Fuc(a1-3)[Gal(b1-4)]GlcNAc(b1-2)Man(a1-6)]Man(b1-4)GlcNAc(b1-4)[Fuc(a1-6)]GlcNAc
# Method in brief: as §1
# [6] = molecular target: Fuc(a1-3)[Gal(b1-4)]GlcNAc(b1-3)Gal(b1-3)[Fuc(a1-4)]GlcNAc
# Method in brief: as §1
# [7] = molecular target: Fuc(a1-3)[Gal(b1-4)]GlcNAc(b1-3)Gal(b1-4)[Fuc(a1-3)]GlcNAc
# Method in brief: as §1
# [8] = molecular target: Fuc(a1-3)[Gal(b1-4)]GlcNAc(b1-3)Gal(b1-4)[Fuc(a1-3)]GlcNAc(b1-3)Gal(b1-4)[Fuc(a1-3)]GlcNAc
# Method in brief: as §1
# [9] = molecular target: Fuc(a1-3)[Gal(b1-4)]GlcNAc(b1-3)GalNAc
# Method in brief: as §1
# [10] = molecular target: Fuc(a1-3)[Gal(b1-4)]GlcNAc(b1-6)GalNAc
# Method in brief: as §1
# [11] = molecular target: Fuc(a1-3)[Gal(b1-4)]GlcNAc(b1-6)[Gal(b1-3)GlcNAc(b1-3)]Gal(b1-4)Glc
# Method in brief: as §1
# [12] = molecular target: Fuc(a1-3)[Gal(b1-4)]GlcNAc6S
# Method in brief: as §1
# [13] = molecular target: Fuc(a1-3)[Gal3S(b1-4)]Glc
# Method in brief: as §1
# [14] = molecular target: Fuc(a1-3)[Gal3S(b1-4)]GlcNAc
# Method in brief: as §1
# [15] = molecular target: Fuc(a1-3)[Gal3S(b1-4)]GlcNAc6S
# Method in brief: as §1
# [16] = molecular target: Fuc(a1-3)[GalNAc(b1-4)]GlcNAc
# Method in brief: as §1
# [17] = molecular target: Fuc(a1-3)[GalNAc(b1-4)]GlcNAc6S
# Method in brief: as §1
# Fuc(a1-4)GlcNAc = molecular target: Fuc(a1-4)GlcNAc
# Method in brief: as §1
# Fuc(b1-3)GlcNAc = molecular target: Fuc(b1-3)GlcNAc
# Method in brief: as §1
# Gal(a1-2)Gal = molecular target: Gal(a1-2)Gal
# Method in brief: as §1
# Gal(a1-3)Gal = molecular target: Gal(a1-3)Gal
# Method in brief: as §1
# Gal(a1-3)Gal(b1-3)GlcNAc = molecular target: Gal(a1-3)Gal(b1-3)GlcNAc
# Method in brief: as §1
# [18] = molecular target: Gal(a1-3)Gal(b1-3)GlcNAc(b1-2)Man
# Method in brief: as §1
# [19] = molecular target: Gal(a1-3)Gal(b1-3)GlcNAc(b1-2)Man(a1-3)[Gal(a1-3)Gal(b1-3)GlcNAc(b1-2)Man(a1-6)]Man(b1-4)GlcNAc(b1-4)GlcNAc
# Method in brief: as §1
# [20] = molecular target: Gal(a1-3)Gal(b1-3)GlcNAc(b1-3)GalNAc
# Method in brief: as §1
# [21] = molecular target: Gal(a1-3)Gal(b1-3)GlcNAc(b1-6)GalNAc
# Method in brief: as §1
# [22] = molecular target: Gal(a1-3)Gal(b1-3)[Fuc(a1-4)]GlcNAc(b1-2)Man(a1-3)[Gal(a1-3)Gal(b1-3)[Fuc(a1-4)]GlcNAc(b1-2)Man(a1-6)]Man(b1-4)GlcNAc(b1-4)GlcNAc
# Method in brief: as §1
# Gal(a1-3)Gal(b1-4)Glc = molecular target: Gal(a1-3)Gal(b1-4)Glc
# Method in brief: as §1
# Gal(a1-3)Gal(b1-4)GlcNAc = molecular target: Gal(a1-3)Gal(b1-4)GlcNAc
# Method in brief: as §1
binder,measurement,setting,value
B1,glycan array binding signal (z-score),Fuc(a1-3)GlcNAc,0.349
same,glycan array binding signal (z-score),[1],0.626
same,glycan array binding signal (z-score),[2],-0.409
same,glycan array binding signal (z-score),[3],0.367
same,glycan array binding signal (z-score),[4],-0.826
same,glycan array binding signal (z-score),[5],0.673
same,glycan array binding signal (z-score),[6],0.407
same,glycan array binding signal (z-score),[7],-0.013
same,glycan array binding signal (z-score),[8],-0.383
same,glycan array binding signal (z-score),[9],0.693
same,glycan array binding signal (z-score),[10],-0.638
same,glycan array binding signal (z-score),[11],0.048
same,glycan array binding signal (z-score),[12],0.507
same,glycan array binding signal (z-score),[13],-0.761
same,glycan array binding signal (z-score),[14],0.226
same,glycan array binding signal (z-score),[15],-0.382
same,glycan array binding signal (z-score),[16],2.99
same,glycan array binding signal (z-score),[17],0.001
same,glycan array binding signal (z-score),Fuc(a1-4)GlcNAc,-0.874
same,glycan array binding signal (z-score),Fuc(b1-3)GlcNAc,-0.453
same,glycan array binding signal (z-score),Gal(a1-2)Gal,-0.944
same,glycan array binding signal (z-score),Gal(a1-3)Gal,-0.44
same,glycan array binding signal (z-score),Gal(a1-3)Gal(b1-3)GlcNAc,-0.376
same,glycan array binding signal (z-score),[18],0.127
same,glycan array binding signal (z-score),[19],-0.832
same,glycan array binding signal (z-score),[20],0.586
same,glycan array binding signal (z-score),[21],-1.26
same,glycan array binding signal (z-score),[22],1.5
same,glycan array binding signal (z-score),Gal(a1-3)Gal(b1-4)Glc,-0.26
same,glycan array binding signal (z-score),Gal(a1-3)Gal(b1-4)GlcNAc,2.22

# In a second layout: results already given
binder	measurement	setting	value
B1	glycan array binding signal (z-score)	[5]	0.673
same	glycan array binding signal (z-score)	[6]	0.407
